Experimental data from publication PMC4579570.
These are yes or no findings as the source states them, for the method shown. Binding seen in cells or lysates may run through a third protein. Some binding calls cover weakened binding; strength is not graded here. For some of these results: Sequences can lack the tags named with a protein. One block for each molecule: values may come before it.

Chains of the proteins cited; added tags and fusions are not shown. Lines headed by an entry give the natural chain unless they say otherwise; changes in a name come on top.
UniProt P15208: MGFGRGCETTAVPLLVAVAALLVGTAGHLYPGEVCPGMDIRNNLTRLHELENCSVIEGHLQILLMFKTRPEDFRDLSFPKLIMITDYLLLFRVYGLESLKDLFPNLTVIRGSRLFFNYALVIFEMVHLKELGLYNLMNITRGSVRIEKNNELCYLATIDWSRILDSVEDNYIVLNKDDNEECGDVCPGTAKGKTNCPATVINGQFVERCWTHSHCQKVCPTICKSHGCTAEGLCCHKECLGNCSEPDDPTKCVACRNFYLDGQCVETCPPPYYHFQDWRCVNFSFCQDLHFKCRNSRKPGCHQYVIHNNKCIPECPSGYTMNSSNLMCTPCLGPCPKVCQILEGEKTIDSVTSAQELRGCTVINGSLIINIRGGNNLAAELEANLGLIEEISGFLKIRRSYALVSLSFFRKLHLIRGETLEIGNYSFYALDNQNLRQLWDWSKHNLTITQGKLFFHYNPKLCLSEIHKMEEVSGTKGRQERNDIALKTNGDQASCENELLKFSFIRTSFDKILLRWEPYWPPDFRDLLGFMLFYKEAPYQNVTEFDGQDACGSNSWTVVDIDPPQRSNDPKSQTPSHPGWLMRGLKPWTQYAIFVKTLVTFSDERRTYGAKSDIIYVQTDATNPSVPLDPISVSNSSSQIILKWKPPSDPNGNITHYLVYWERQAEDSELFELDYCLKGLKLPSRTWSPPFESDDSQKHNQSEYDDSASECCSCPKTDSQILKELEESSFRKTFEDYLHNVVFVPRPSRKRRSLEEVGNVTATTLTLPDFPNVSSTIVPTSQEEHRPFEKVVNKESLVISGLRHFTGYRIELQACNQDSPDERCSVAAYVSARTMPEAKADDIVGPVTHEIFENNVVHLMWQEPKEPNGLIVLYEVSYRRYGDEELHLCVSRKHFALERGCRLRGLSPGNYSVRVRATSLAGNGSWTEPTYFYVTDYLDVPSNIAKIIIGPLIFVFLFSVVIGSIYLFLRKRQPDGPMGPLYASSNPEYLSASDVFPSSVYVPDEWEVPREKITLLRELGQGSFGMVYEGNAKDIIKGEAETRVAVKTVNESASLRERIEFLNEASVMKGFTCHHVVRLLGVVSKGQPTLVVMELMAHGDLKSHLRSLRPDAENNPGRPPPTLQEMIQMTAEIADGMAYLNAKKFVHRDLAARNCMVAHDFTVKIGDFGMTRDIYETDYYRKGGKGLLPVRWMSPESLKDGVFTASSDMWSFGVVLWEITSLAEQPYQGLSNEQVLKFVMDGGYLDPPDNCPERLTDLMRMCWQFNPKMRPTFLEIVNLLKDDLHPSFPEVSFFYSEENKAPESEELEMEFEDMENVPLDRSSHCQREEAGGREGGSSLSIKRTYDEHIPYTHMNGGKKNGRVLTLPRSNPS
UniProt Q8CDJ3: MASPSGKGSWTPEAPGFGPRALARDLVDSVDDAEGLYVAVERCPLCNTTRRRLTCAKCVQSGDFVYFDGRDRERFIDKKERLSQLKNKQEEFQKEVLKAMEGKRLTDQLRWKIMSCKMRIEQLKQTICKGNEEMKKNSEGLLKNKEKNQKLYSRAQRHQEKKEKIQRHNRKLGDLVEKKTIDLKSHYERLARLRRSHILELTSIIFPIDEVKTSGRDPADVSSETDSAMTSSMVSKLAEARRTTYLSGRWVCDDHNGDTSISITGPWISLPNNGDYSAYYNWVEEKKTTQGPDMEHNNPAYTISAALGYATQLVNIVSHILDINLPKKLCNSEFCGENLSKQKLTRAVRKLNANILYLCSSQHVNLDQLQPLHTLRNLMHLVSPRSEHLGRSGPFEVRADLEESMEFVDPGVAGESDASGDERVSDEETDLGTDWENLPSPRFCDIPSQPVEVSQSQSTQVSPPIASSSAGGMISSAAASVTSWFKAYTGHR
UniProt Q8VD65: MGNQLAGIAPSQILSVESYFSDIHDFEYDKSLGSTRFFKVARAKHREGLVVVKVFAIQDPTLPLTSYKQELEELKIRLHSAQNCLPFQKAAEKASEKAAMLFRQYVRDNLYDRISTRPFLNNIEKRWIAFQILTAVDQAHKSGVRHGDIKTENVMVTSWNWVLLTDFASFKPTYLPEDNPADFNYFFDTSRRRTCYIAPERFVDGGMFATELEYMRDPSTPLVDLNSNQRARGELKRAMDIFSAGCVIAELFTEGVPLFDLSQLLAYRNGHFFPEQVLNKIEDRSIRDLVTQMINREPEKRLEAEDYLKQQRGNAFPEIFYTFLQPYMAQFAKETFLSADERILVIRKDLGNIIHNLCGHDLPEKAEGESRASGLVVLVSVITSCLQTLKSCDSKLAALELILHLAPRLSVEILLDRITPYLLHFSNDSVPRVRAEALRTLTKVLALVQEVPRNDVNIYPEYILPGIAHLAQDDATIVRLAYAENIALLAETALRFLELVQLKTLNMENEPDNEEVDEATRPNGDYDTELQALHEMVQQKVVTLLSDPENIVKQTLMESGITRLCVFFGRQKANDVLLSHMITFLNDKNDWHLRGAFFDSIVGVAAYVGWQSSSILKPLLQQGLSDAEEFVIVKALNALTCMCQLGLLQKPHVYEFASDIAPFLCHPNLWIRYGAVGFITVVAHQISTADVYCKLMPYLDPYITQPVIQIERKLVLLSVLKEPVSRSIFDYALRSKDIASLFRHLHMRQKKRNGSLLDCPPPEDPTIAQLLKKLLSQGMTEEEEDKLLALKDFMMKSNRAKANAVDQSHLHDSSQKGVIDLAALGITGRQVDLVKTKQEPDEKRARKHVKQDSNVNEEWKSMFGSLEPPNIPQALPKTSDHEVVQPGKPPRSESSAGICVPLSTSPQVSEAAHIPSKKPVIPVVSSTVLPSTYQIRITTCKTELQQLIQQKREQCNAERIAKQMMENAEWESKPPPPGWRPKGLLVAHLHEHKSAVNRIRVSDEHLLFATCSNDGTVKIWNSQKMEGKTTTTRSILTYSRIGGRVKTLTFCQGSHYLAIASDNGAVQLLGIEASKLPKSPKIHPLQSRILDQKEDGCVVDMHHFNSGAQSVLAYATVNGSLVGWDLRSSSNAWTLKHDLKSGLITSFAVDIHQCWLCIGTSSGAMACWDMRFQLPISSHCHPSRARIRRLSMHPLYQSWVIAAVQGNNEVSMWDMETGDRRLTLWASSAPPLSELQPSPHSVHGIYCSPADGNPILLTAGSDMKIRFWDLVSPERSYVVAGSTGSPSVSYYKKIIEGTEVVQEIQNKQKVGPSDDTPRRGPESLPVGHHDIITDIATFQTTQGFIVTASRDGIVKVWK
UniProt Q6PF93: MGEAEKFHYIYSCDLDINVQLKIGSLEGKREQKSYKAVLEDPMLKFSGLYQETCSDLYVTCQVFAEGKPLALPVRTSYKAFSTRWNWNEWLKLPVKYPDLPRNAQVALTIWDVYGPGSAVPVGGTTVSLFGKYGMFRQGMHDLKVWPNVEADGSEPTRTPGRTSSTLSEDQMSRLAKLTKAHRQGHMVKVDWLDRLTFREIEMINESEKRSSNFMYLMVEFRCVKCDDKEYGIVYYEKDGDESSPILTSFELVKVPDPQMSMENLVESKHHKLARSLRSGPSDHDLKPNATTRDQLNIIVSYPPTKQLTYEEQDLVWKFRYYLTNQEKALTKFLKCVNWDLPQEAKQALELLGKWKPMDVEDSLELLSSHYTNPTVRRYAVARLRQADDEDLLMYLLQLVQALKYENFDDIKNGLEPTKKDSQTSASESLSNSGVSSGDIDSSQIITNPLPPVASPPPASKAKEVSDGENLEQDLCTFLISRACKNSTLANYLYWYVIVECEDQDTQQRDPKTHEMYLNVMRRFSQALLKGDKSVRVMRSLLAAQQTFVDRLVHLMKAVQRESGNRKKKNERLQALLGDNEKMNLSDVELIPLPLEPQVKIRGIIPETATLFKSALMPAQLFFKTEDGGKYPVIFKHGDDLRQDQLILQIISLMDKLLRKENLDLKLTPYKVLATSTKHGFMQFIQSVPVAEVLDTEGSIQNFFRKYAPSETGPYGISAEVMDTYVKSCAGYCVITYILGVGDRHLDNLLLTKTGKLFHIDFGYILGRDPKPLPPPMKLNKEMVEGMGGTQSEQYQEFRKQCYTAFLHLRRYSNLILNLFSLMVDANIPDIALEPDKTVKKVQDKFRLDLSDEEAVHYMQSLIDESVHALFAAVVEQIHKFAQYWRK
UniProt P26450: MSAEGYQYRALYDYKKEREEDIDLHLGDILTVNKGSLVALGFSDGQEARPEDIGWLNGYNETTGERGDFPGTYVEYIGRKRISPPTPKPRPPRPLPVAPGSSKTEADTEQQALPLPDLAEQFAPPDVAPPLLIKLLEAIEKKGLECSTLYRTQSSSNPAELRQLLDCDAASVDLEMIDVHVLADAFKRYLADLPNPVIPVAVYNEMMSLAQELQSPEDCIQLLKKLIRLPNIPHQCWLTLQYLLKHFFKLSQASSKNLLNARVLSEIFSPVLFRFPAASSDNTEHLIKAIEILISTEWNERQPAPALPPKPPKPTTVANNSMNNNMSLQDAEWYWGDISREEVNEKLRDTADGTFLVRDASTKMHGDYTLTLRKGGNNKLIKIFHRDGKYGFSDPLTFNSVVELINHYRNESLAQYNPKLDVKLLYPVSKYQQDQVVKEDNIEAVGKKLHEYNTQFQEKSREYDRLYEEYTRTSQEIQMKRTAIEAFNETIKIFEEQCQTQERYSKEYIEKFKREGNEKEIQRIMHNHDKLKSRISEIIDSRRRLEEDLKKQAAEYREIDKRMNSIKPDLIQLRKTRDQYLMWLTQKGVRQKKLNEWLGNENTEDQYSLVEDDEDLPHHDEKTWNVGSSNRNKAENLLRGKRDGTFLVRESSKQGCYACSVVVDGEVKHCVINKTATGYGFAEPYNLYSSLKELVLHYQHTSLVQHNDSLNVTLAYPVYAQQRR

Assays:
[1] = biological target: insulin receptor (mouse (endogenous in primary hepatocytes, Hepa1.6 cells and liver)) (UniProt P15208); test: co-IP; endogenous IRβ immunoprecipitated with anti-IRβ antibody from primary hepatocytes serum starved for 24 h and stimulated with 1 μM insulin; Protein G Sepharose; immunoblot
[2] = biological target: Atg14-related protein (ATG14) (mouse (endogenous in Hepa1.6 cells and primary hepatocytes)) (UniProt Q8CDJ3); test: co-IP; Hepa1.6 cells grown with (NR) or without amino acids (-AA), lysed in Mild Lysis Buffer (1% NP-40, 100 mM NaCl); anti-ATG14 or anti-UVRAG antibody coupled to protein G Sepharose, 4 °C, 2 h; co-immunoprecipitated Vps34 revealed by immunoblot
[3] = biological target: T1, ultraviolet radiation resistance-associated gene protein (UVRAG) (mouse (endogenous in primary hepatocytes and Hepa1.6 cells)) (UniProt Q8K245); test: as above
T1 sequence: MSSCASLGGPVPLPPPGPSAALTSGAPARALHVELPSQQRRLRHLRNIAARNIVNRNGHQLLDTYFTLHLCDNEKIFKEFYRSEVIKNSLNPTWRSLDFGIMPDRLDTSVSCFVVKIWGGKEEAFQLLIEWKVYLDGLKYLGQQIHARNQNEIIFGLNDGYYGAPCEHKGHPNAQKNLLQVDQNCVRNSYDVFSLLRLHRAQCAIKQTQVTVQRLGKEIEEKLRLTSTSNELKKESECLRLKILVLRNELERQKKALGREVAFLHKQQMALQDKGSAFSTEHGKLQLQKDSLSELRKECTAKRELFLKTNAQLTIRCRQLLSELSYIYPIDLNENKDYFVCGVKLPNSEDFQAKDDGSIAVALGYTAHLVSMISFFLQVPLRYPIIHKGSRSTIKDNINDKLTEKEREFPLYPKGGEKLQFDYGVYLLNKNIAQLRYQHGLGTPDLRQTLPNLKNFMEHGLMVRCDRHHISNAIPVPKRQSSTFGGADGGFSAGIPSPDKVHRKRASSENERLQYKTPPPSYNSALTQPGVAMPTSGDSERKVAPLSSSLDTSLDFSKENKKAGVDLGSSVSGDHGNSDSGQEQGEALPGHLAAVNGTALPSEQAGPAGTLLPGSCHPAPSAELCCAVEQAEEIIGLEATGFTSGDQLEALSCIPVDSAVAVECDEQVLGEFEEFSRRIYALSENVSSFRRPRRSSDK

[4] = biological target: Atg14-related protein (ATG14) (mouse (endogenous in Hepa1.6 cells and primary hepatocytes)) (UniProt Q8CDJ3); test: co-IP; primary hepatocytes serum starved for 24 h then stimulated with 1 μM insulin, lysed in Mild Lysis Buffer; anti-ATG14 or anti-UVRAG antibody coupled to protein G Sepharose, 4 °C, 2 h; co-immunoprecipitated Vps34 revealed by immunoblot
[5] = biological target: T1, ultraviolet radiation resistance-associated gene protein (UVRAG) (mouse (endogenous in primary hepatocytes and Hepa1.6 cells)); test: as above
[6] = biological target: insulin receptor (mouse (endogenous in primary hepatocytes, Hepa1.6 cells and liver)) (UniProt P15208); test: co-IP; immunoprecipitation followed by class III PI3K biochemical (lipid kinase) assay; endogenous IR (Supplementary Fig. 3d, legend not shown)
UVRAG–Flag = biological target: T2, UVRAG–Flag (UniProt Q9P2Y5); test: co-IP; primary hepatocytes transiently transfected with UVRAG–Flag, kept in serum containing media, collected 36 h post-transfection; 1 mg extract (1% NP-40 lysis buffer) with 1 μg anti-Flag M2, 2 h at 4 °C, Protein G Sepharose; immunoblot
T2 sequence: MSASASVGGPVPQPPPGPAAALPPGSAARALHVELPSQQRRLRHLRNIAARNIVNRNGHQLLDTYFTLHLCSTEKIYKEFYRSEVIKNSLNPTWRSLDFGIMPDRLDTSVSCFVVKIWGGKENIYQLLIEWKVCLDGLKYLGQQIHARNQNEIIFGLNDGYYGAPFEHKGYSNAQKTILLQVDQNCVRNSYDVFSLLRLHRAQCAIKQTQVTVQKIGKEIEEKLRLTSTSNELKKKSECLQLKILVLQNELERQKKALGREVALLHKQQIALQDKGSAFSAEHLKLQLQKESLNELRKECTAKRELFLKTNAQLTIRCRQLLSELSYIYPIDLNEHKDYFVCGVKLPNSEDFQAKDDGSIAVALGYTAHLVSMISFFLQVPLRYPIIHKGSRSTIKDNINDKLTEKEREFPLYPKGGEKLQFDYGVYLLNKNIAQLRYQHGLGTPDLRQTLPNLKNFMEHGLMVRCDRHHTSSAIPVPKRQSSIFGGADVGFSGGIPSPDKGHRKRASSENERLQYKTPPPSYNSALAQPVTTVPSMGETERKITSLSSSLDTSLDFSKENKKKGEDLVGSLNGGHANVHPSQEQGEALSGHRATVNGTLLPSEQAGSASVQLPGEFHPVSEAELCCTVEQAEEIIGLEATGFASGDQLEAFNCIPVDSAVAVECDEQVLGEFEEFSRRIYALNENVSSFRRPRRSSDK

[7] = biological target: insulin receptor (mouse (endogenous in primary hepatocytes, Hepa1.6 cells and liver)) (UniProt P15208); test: co-IP; IRβ immunoprecipitated with anti-IRβ antibody from liver total protein extracts of random-fed ob/ob mice 8 days after Adeno-shRNA SCR or Adeno-shRNA Vps15; immunoblot for p85αPI3K
[8] = biological target: T3, ultraviolet radiation resistance-associated gene protein (UVRAG) (mouse (endogenous in primary hepatocytes and Hepa1.6 cells)), Q8K245; test: co-IP; UVRAG-containing complexes immunoprecipitated with anti-UVRAG antibody from primary hepatocytes serum starved for 24 h, with or without 1 μM insulin for indicated times; Protein G Sepharose; immunoblot; settings: remark: other sources report otherwise
T3 chain: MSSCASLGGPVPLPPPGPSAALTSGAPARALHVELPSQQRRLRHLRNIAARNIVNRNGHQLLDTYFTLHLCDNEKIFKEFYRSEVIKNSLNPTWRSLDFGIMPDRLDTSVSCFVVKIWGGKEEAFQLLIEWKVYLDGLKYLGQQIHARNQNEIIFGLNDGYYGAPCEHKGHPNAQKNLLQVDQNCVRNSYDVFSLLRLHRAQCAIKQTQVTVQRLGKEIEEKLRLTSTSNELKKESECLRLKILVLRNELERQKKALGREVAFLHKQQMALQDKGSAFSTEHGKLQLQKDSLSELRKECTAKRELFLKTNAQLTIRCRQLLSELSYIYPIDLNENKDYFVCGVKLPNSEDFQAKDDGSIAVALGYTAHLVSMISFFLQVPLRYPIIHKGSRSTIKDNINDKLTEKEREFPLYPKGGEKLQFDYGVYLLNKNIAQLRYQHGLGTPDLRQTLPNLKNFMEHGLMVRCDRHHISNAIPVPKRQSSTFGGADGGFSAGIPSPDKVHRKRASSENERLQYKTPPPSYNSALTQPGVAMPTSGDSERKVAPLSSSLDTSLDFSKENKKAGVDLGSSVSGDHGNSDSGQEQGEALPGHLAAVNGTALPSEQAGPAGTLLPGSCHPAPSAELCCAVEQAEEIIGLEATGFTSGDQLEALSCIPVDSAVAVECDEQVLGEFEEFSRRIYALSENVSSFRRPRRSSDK

binding [1]: binds
Molecule: Vps15 (from UniProt Q8VD65 1-1358)

binding [2]: binds
binding [3]: binds
binding [4]: binds
binding [5]: binds
binding [6]: binds
Molecule: Vps34 (from UniProt Q6PF93 1-887) (enzyme)

binding (UVRAG–Flag): binds
Molecule: insulin receptor (from UniProt P15208 753-1372; P15208 28-748)

binding [7]: binds
Molecule: p85αPI3K (from UniProt P26450 1-724)

binding [8]: binds
B1: Rubicon, Q80U62 1-956 (protein)
chain: MRPEGAGMDLGGGDGERLLEKSRREHWQLLGNLKTTVEGLVSANCPNVWSKYGGLERLCRDMQNILYHGLIHDQVCCRQADYWQFVKDIRWLSPHSALHVEKFISLHESDQSDTDSVSERAVAELWLQHSLQCHCLSAQLRPLLGDRQYIRKFYTETAFLLSDAHVTAMLQCLEAVEQNNPRLLAQIDASMFARKQESPLLVTKSQSLTALPGSTYTPPASYAQHSYFGSSSSLQSMPQSSHSSERRSTSFSLSGPSWQPQEDRECLSPAETQTTPAPLPSDSTLAQDSPLTAQEMSDSTLTSPLEASWVSSQNDSPSDVSEGPEYLAIGNPAPHGRTASCESHSSNGESSSSHLFSSSSSQKLESAASSLGDQEEGRQSQAGSVLRRSSFSEGQTAPVASGTKKSHIRSHSDTNIASRGAAGGPRNITIIVEDPIAEGGQYLCSGEGMFRRPSEGQSLISYLSEQDFGSCADLEKENAHFSISESLIAAIELMKCNMMSQCLEEEEVEEEDSDREIQELKQKIRLRRQQIRTKNLLPAYRETENGSFRVTSSSSQFSSRDSTQLSESGSAEDADDLEIQDADIRRSAVSNGKSSFSQNLSHCFLHSTSAEAVAMGLLKQFEGMQLPAASELEWLVPEHDAPQKLLPIPDSLPISPDDGQHADIYKLRIRVRGNLEWAPPRPQIIFNVHPAPTRKIAVAKQNYRCAGCGIRTDPDYIKRLRYCEYLGKYFCQCCHENAQMVVPSRILRKWDFSKYYVSNFSKDLLLKIWNDPLFNVQDINSALYRKVKLLNQVRLLRVQLYHMKNMFKTCRLAKELLDSFDVVPGHLTEDLHLYSLSDLTATKKGELGPRLAELTRAGAAHVERCMLCQAKGFICEFCQNEEDVIFPFELHKCRTCEECKACYHKTCFKSGRCPRCERLQARRELLAKQSLESYLSDYEEEPTEALALEATVLETT

binding [1]: binds
B2: ultraviolet radiation resistance-associated gene protein (UVRAG) (protein, UniProt Q8K245 1-698)
chain: MSSCASLGGPVPLPPPGPSAALTSGAPARALHVELPSQQRRLRHLRNIAARNIVNRNGHQLLDTYFTLHLCDNEKIFKEFYRSEVIKNSLNPTWRSLDFGIMPDRLDTSVSCFVVKIWGGKEEAFQLLIEWKVYLDGLKYLGQQIHARNQNEIIFGLNDGYYGAPCEHKGHPNAQKNLLQVDQNCVRNSYDVFSLLRLHRAQCAIKQTQVTVQRLGKEIEEKLRLTSTSNELKKESECLRLKILVLRNELERQKKALGREVAFLHKQQMALQDKGSAFSTEHGKLQLQKDSLSELRKECTAKRELFLKTNAQLTIRCRQLLSELSYIYPIDLNENKDYFVCGVKLPNSEDFQAKDDGSIAVALGYTAHLVSMISFFLQVPLRYPIIHKGSRSTIKDNINDKLTEKEREFPLYPKGGEKLQFDYGVYLLNKNIAQLRYQHGLGTPDLRQTLPNLKNFMEHGLMVRCDRHHISNAIPVPKRQSSTFGGADGGFSAGIPSPDKVHRKRASSENERLQYKTPPPSYNSALTQPGVAMPTSGDSERKVAPLSSSLDTSLDFSKENKKAGVDLGSSVSGDHGNSDSGQEQGEALPGHLAAVNGTALPSEQAGPAGTLLPGSCHPAPSAELCCAVEQAEEIIGLEATGFTSGDQLEALSCIPVDSAVAVECDEQVLGEFEEFSRRIYALSENVSSFRRPRRSSDK
